Results reported in publication PMC3182244.

T1: His-tagged Tob37 (strain Tob37HT) (Neurospora crassa) (UniProt Q7SFC4)
T1 sequence: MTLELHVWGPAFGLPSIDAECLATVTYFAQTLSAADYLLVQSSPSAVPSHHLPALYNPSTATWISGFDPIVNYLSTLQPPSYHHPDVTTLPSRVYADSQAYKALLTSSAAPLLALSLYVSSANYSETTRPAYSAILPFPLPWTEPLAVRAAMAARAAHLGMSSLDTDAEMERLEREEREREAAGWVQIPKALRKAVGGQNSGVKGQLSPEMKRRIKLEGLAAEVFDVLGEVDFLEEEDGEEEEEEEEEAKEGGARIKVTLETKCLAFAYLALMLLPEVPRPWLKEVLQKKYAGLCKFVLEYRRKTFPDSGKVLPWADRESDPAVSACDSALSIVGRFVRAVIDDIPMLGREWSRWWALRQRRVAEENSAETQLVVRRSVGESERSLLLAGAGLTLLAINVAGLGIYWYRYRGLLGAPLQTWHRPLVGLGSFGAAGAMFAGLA

T2: His-tagged Tob38 (strain Tob38HT) (Neurospora crassa) (UniProt V5IPB4)
T2 sequence: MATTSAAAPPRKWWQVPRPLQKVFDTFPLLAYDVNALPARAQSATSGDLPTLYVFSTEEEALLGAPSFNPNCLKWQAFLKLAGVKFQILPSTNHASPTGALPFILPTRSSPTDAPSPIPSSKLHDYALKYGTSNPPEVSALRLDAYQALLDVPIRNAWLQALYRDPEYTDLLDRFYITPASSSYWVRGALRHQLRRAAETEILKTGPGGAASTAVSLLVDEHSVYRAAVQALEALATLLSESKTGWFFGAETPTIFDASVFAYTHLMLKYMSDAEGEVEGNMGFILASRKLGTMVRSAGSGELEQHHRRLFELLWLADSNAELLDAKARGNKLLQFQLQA


Key:
Assay in all cases: pull-down; His-tagged TOB subunit purified from isolated N. crassa mitochondria on Ni-NTA resin (as in ref. 16); eluate run on BNGE, or BNGE then SDS-PAGE (two dimensions), and blotted with antibodies to Tob55, Tob38, Tob37 or Mdm10
[1] = biological target: T1, His-tagged Tob37 (strain Tob37HT) (Neurospora crassa)
[2] = biological target: T2, His-tagged Tob38 (strain Tob38HT) (Neurospora crassa)
[3] = biological target: His-tagged long Tob55 (strain Tob55 Long HT) (Neurospora crassa)
[4] = biological target: His-tagged Tob55 (strain Tob55HT) (Neurospora crassa)
[5] = biological target: His-tagged intermediate Tob55 (strain Tob55 Int HT) (Neurospora crassa)
[6] = biological target: His-tagged short Tob55 (strain Tob55 Short HT) (Neurospora crassa)

Row | binding [1] | binding [2] | binding [3] | binding [4] | binding [5] | binding [6] | Molecule
1 | binds | binds |  |  |  |  | Tob55
2 |  |  | binds | binds | binds | binds | Tob38 (protein, UniProt V5IPB4 1-340) MATTSAAAPPRKWWQVPRPLQKVFDTFPLLAYDVNALPARAQSATSGDLPTLYVFSTEEEALLGAPSFNPNCLKWQAFLKLAGVKFQILPSTNHASPTGALPFILPTRSSPTDAPSPIPSSKLHDYALKYGTSNPPEVSALRLDAYQALLDVPIRNAWLQALYRDPEYTDLLDRFYITPASSSYWVRGALRHQLRRAAETEILKTGPGGAASTAVSLLVDEHSVYRAAVQALEALATLLSESKTGWFFGAETPTIFDASVFAYTHLMLKYMSDAEGEVEGNMGFILASRKLGTMVRSAGSGELEQHHRRLFELLWLADSNAELLDAKARGNKLLQFQLQA
3 |  |  |  | binds |  |  | Mdm10 (protein, UniProt Q7SBE0 1-480) MREFMNYITNAFYGATGWNEDNKYNELNATSRELIDFPLPRGLRLTLSSLATPHFATSYQLGSVGVVDGSISYLHSSIPLTHIAAQSDKIPLPALLRCYRRLHDLRSPGQQHYILDADPLSGLPPPPQSARALLGAASDAAVAGGALDGGNTDQDLGIYTHSLLYGRLYLPKSLLEGMIIKRFTQALQVQVRAVSEQSLRNGGTILGLVQYDKGKYGLEGLYSTDGGLLGFRGLYNFGGDASSSTCDPWTPTPGENNNNNNNNNNNNNGNAQAGEKERIYGRFSVGGELYYGTLNKSGGMSLGARFATLPAHRGTPLTATLTINPLMGNINATYALLAREYCSLATRVDFNVYSYESEWAVGMELWSNRRPAGFLLGASPSNDFEPEPHPPRKKERSFQAKMEWRLDDPEPEPEPQPTPKTRKNDEYKGVLKARLDNNLRMGLLWEGRAKSLIFSIGTGIDLHKLGEPFRSLGLEVQYSS
4 |  |  | binds | binds | binds | binds | Tob37 (protein, UniProt Q7SFC4 1-442) MTLELHVWGPAFGLPSIDAECLATVTYFAQTLSAADYLLVQSSPSAVPSHHLPALYNPSTATWISGFDPIVNYLSTLQPPSYHHPDVTTLPSRVYADSQAYKALLTSSAAPLLALSLYVSSANYSETTRPAYSAILPFPLPWTEPLAVRAAMAARAAHLGMSSLDTDAEMERLEREEREREAAGWVQIPKALRKAVGGQNSGVKGQLSPEMKRRIKLEGLAAEVFDVLGEVDFLEEEDGEEEEEEEEEAKEGGARIKVTLETKCLAFAYLALMLLPEVPRPWLKEVLQKKYAGLCKFVLEYRRKTFPDSGKVLPWADRESDPAVSACDSALSIVGRFVRAVIDDIPMLGREWSRWWALRQRRVAEENSAETQLVVRRSVGESERSLLLAGAGLTLLAINVAGLGIYWYRYRGLLGAPLQTWHRPLVGLGSFGAAGAMFAGLA

Results are given in words; binding and its absence hold for the method and conditions named. Binding seen in cells or lysates may run through a third protein. Binding can be weak; no strength is given. For some assays here: Tags and fused reporters may be left off the sequences shown.
